These are yes or no findings as the source states them, for the method shown. In cells and extracts the contact can be indirect. Some results given as binding are weak or reduced against the parent protein; the word gives no strength. Tags and fused reporters may be left off the sequences shown.
Biological target: T1, HA tag-fused NXF1 (UniProt Q99JX7)
T1 sequence: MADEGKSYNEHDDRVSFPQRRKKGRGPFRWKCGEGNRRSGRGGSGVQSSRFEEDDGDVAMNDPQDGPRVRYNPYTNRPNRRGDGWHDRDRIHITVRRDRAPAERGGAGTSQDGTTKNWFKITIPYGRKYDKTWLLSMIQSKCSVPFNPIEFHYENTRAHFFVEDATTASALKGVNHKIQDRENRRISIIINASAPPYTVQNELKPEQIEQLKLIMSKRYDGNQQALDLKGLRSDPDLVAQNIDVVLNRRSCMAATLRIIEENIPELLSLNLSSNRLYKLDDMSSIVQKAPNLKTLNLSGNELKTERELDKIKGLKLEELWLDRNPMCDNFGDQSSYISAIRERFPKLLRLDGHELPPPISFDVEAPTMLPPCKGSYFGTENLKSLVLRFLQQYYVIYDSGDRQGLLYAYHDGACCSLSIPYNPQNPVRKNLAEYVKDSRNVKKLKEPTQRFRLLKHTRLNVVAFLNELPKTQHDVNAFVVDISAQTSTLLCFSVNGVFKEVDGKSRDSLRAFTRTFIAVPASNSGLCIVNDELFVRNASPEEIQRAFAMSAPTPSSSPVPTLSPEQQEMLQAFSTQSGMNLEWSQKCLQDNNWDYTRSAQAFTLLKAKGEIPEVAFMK
Experiment: co-IP

Chains of the proteins cited; added tags and fusions are not shown.
UniProt B9EJS2: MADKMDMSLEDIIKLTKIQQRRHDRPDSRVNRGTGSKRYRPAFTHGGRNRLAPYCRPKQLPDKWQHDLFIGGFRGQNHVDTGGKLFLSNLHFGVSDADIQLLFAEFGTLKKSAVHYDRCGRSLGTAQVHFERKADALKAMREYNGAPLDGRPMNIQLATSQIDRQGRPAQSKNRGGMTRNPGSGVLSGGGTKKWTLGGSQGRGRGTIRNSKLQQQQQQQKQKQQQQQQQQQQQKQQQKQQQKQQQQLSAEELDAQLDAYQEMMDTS

Q: With “3FLAG-fused REFEE (GM4340) (from UniProt B9EJS2 1-266)” as the substance, how does the binding read?
A: binds

— publication doi:10.1101/2025.08.21.671216
